{
  "source": "PubChem BioAssay AID504834",
  "about": "(National Center for Advancing Translational Sciences (NCATS), 2011)",
  "note": "The campaign covered roughly 320,000 compounds. About 22,000 (6.9%) were called active. Inconclusive results, whose numbers are uncertain, are shown with a selection of clear calls. Calls follow the shape of the dose curve; as a rule, active = well fitted inhibition curve with a large enough effect; inconclusive = small, poorly fitted or top-dose-only effect, or another doubt; inactive = no such curve, though single readings can be large or run the other way. Potencies beside an inconclusive call are fits to weak or partial responses and may not hold up. % is scaled to controls: 0 for no effect and ±100 for the full control effect; potency is read from the fitted curve at half-maximal effect.",
  "data": [
    {"assay": "Primary qHTS for delayed death inhibitors of the malarial parasite plastid, 96 hour incubation", "settings": "P. falciparum luciferase reporter growth; series mostly up to 28.7 µM; activity change, negative = inhibition: at the top concentration", "summary_of_the_method": "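P. falciparum expressing integrated firefly luciferase, in erythrocytes at 2% hematocrit, 0.05% parasitemia, incubated with compounds 96 h at 37 C, 5% CO2. Growth inhibition read as loss of luminescence; two-generation exposure targets delayed-death apicoplast inhibitors.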", "values": [
      {"smiles": "O=C(CC(Nc1ccccc1)c1ccc(F)cc1)c1ccccc1", "note": "(stereo not drawn)", "Potency": "active: 2.62 µM"},
      {"smiles": "CCOC(=O)CSc1ccc(C(=O)N2CCN(C)CC2)cc1[N+](=O)[O-]", "Potency": "inconclusive: 18.5 µM [inhibitor, single point]"},
      {"smiles": "OCCNCCOc1ccccc1F", "Potency": "inconclusive: 18.5 µM [inhibitor, single point]"},
      {"smiles": "O=C(Nc1ccccc1C(=O)N1CCCCC1)c1cccc(S(=O)(=O)N2CCOCC2)c1", "activity change, negative = inhibition": "inactive: 35.1%"},
      {"smiles": "O=C(Nc1nc(-c2ccncc2)cs1)c1ccco1", "Potency": "inconclusive: 18.5 µM [inhibitor, single point]"},
      {"smiles": "N/C(=N\\OC(=O)CN1C(=O)c2ccccc2C1=O)c1ccc(Br)cc1", "activity change, negative = inhibition": "inactive: 3.91%"},
      {"smiles": "COc1ccc(C(=O)Nc2ccccc2N2CCOCC2)cc1Br", "Potency": "inconclusive: 14.7 µM [inhibitor, partial curve, poor fit]"},
      {"smiles": "CCOCc1nnc(NC(=O)C2CCN(C(=O)c3ccco3)CC2)s1", "Potency": "inconclusive: 10.4 µM [inhibitor, single point]"},
      {"smiles": "O=C(/C=C/c1ccc(-c2ccc(F)cc2)o1)N1CCCC1", "activity change, negative = inhibition": "inactive: 52.8%"},
      {"smiles": "COCCNC(=O)C(c1ccc(O)cc1)N(Cc1cccs1)C(=O)CCC(=O)Nc1ccccn1", "note": "(stereo not drawn)", "activity change, negative = inhibition": "inactive: 10.6%"},
      {"smiles": "COc1cc2c(cc1OC)CN(CC(=O)NC(=O)NCc1ccccc1)CC2", "Potency": "inconclusive: 11.7 µM [inhibitor, single point]"},
      {"smiles": "O=C(CN(Cc1ccc(Br)cc1)S(=O)(=O)c1ccccc1)NCc1ccccn1", "activity change, negative = inhibition": "inactive: 214%"},
      {"smiles": "CC(=O)c1c(C)[nH]c(C(=O)COC(=O)COc2ccccc2F)c1C", "Potency": "inconclusive: 4.15 µM [inhibitor, partial curve, poor fit]"},
      {"smiles": "Cc1cccc(/C(N)=N/OC(=O)c2ccccc2Cl)c1", "Potency": "inconclusive: 0.0033 µM [inhibitor, full curve, poor fit]"},
      {"smiles": "Cc1ccccc1S(=O)(=O)N(CC(O)CN1C(=O)NC(C)(C)C1=O)c1ccccc1", "note": "(stereo not drawn)", "activity change, negative = inhibition": "inactive: -14.6%"},
      {"smiles": "NC(=O)CC(NC(=O)c1cccc(Br)c1)c1ccc(N2CCN(c3ccccn3)CC2)c([N+](=O)[O-])c1", "note": "(stereo not drawn)", "Potency": "inconclusive: 3.29 µM [inhibitor, partial curve, poor fit]"},
      {"smiles": "Cc1ccc(S(=O)(=O)N2[C@@H](c3ccc(Cl)cc3)C(C(=O)O)=CC[C@H]2c2ccc(C(C)C)cc2)cc1", "activity change, negative = inhibition": "inactive: 54.8%"},
      {"smiles": "CCc1c(C)nc(SCC(N)=O)c(C#N)c1C", "activity change, negative = inhibition": "inactive: -29.8%"},
      {"smiles": "Cc1ccc(CCNC(=O)C2CCC(CNc3c(N4CCCC4)c(=O)c3=O)CC2)cc1", "note": "(stereo not drawn)", "Potency": "inconclusive: 0.0074 µM [inhibitor, full curve, poor fit]"},
      {"smiles": "Cc1cccn2c(=O)c3cc(S(=O)(=O)c4ccc(Br)cc4)c(=N)n(C4CCCCC4)c3nc12", "Potency": "inconclusive: 3.7 µM [inhibitor, partial curve, poor fit]"},
      {"smiles": "Cc1cc(Nc2cccc(C(F)(F)F)c2)n2nc(C)nc2n1", "activity change, negative = inhibition": "inactive: 0%"},
      {"smiles": "CCCN1/C(=C2/SC(=S)N(CC)C2=O)C=Cc2ccccc21", "Potency": "inconclusive: 18.5 µM [inhibitor, partial curve, poor fit]"},
      {"smiles": "CCOC(=O)Cn1c(C(=O)OCC)cc2sccc21", "Potency": "inconclusive: 4.15 µM [inhibitor, partial curve, poor fit]"},
      {"smiles": "COc1ccc(CNC(=O)Cn2c(=O)n(CC(=O)N3CCCCC3)c(=O)c3sccc32)cc1", "Potency": "inconclusive: 18.5 µM [inhibitor, single point]"},
      {"smiles": "Cc1ccccc1OCCn1cc(C(=O)O)c2ccccc21", "activity change, negative = inhibition": "inactive: -2.03%"},
      {"smiles": "Cc1cc(C)nc(/N=C(\\N)Nc2ccc(F)c([N+](=O)[O-])c2)n1", "Potency": "inconclusive: 2.08 µM [inhibitor, partial curve, poor fit]"},
      {"smiles": "COc1ccc(S(=O)(=O)N2CCN(C(=S)Nc3ccc(S(N)(=O)=O)cc3)CC2)cc1", "Potency": "inconclusive: 13.1 µM [inhibitor, single point]"},
      {"smiles": "COc1ccc(CCN(C)CCN2C(=O)c3ccccc3C2=O)cc1OC", "Potency": "inconclusive: 13.1 µM [inhibitor, partial curve, poor fit]"},
      {"smiles": "CCc1cc(C(=O)NC2CCCc3c2cnn3-c2cccc(C)c2C)n(C)n1", "note": "(stereo not drawn)", "activity change, negative = inhibition": "inactive: 11.1%"},
      {"smiles": "CCOc1cccc(CNCCCSc2ncccn2)c1", "Potency": "inconclusive: 11.7 µM [inhibitor, partial curve]"},
      {"smiles": "O=C(N/N=C/c1c[nH]c2ccccc12)c1ccc(Cl)cc1", "Potency": "inconclusive: 1.65 µM [inhibitor, full curve]"},
      {"smiles": "O=C(CN1C(=O)C2C3C=CC(C3)C2C1=O)Nc1ccc2c(c1)OCCO2", "note": "(stereo not drawn)", "activity change, negative = inhibition": "inactive: 54%"},
      {"smiles": "COc1cccc(-c2ncc3ccccc3c2COC(=O)c2ccccc2C(=O)O)c1", "Potency": "inconclusive: 13.1 µM [inhibitor, partial curve, poor fit]"},
      {"smiles": "CCN(CC)S(=O)(=O)c1cc(-c2nn(C)c(=O)c3ccccc23)ccc1C", "Potency": "inconclusive: 0.465 µM [inhibitor, full curve]"},
      {"smiles": "COc1ccc(C(=O)N2CC3(CC(c4ccc(Cl)cc4)=NO3)C[C@H]2C(=O)NCC(N)=O)cc1", "note": "(stereo partly drawn)", "activity change, negative = inhibition": "inactive: 34.7%"},
      {"smiles": "COc1ccc(C)cc1Nc1n[n+](-c2ccccc2)c(-c2c(OC)ccc3ccccc23)s1", "Potency": "inconclusive: 7.38 µM [inhibitor, partial curve, poor fit]"},
      {"smiles": "CCN1C(=O)c2cccc3c(S(=O)(=O)NC(Cc4ccccc4)C(=O)O)ccc1c23", "note": "(stereo not drawn)", "Potency": "inconclusive: 0.0522 µM [inhibitor, full curve, poor fit]"},
      {"smiles": "COc1ccc([N+](=O)[O-])cc1NC(=O)C(C)c1ccccc1", "note": "(stereo not drawn)", "Potency": "inconclusive: 4.65 µM [inhibitor, partial curve]"},
      {"smiles": "COCCN(C(=O)c1ccc(NC2CC2)c([N+](=O)[O-])c1)c1c(N)n(CC(C)C)c(=O)[nH]c1=O", "Potency": "inconclusive: 8.28 µM [inhibitor, partial curve]"},
      {"smiles": "CC(C)C(NC(=O)C1CCCCC1)C(=O)NCc1ccccn1", "note": "(stereo not drawn)", "Potency": "inconclusive: 4.15 µM [inhibitor, single point]"},
      {"smiles": "CC1CCN(C(=O)COC(=O)c2ccc(F)c(S(=O)(=O)N3CCOCC3)c2)CC1", "activity change, negative = inhibition": "inactive: 1.01%"},
      {"smiles": "COc1cccc(C(=O)Nc2ccc(NC(=O)C3CCCCC3)nc2)c1", "activity change, negative = inhibition": "inactive: -2.12%"},
      {"smiles": "COc1cccc(/C=C/C(=O)c2ccc(NS(=O)(=O)c3ccc(C)cc3)cc2)c1", "Potency": "inconclusive: 18.5 µM [inhibitor, single point]"},
      {"smiles": "Cc1cccc(C2CC3(CC(C)(C)NC(=S)N3)Oc3cc(O)ccc32)c1", "note": "(stereo not drawn)", "activity change, negative = inhibition": "inactive: -8.87%"},
      {"smiles": "Cc1cc2c(cc1C)C(c1ccsc1)CC(=O)N2", "note": "(stereo not drawn)", "Potency": "active: 4.65 µM"},
      {"smiles": "Oc1ccc(Br)cc1-c1ccnn1-c1ccccc1", "Potency": "inconclusive: 11.7 µM [inhibitor, single point]"},
      {"smiles": "Cc1cccc(NC(=O)Cn2nnc(-c3cccs3)n2)c1C", "Potency": "inconclusive: 8.28 µM [inhibitor, partial curve, poor fit]"},
      {"smiles": "Cc1ccc(S(=O)(=O)N2c3ccccc3OCC2C(C)(C)C)cc1", "note": "(stereo not drawn)", "Potency": "inconclusive: 18.5 µM [inhibitor, single point]"},
      {"smiles": "Cc1cc(/C=C(/C#N)c2nc3ccccc3[nH]2)c(C)n1-c1ccccc1C(=O)O", "activity change, negative = inhibition": "inactive: 18.8%"},
      {"smiles": "COc1ccc(NC(=O)CSc2ccc(-c3cccnc3)nn2)c(OC)c1", "Potency": "inconclusive: 1.85 µM [inhibitor, full curve]"},
      {"smiles": "COc1ccc(C(=O)NC2CC(C)(C)Cc3c2cnn3-c2ccccc2)cc1OC", "note": "(stereo not drawn)", "Potency": "inconclusive: 14.7 µM [inhibitor, single point]"},
      {"smiles": "Cc1n[nH]c(C)c1CCN(C)Cc1cn(C)nc1-c1ccc2c(c1)OCCO2", "Potency": "active: 1.31 µM"},
      {"smiles": "O=C(NCCN1CCOCC1)c1cccc(NS(=O)(=O)c2ccc(Br)cc2)c1", "Potency": "inconclusive: 3.7 µM [inhibitor, single point]"},
      {"smiles": "Cc1ccsc1C(=O)NNC(=O)C1C2C=CC(C2)C1C(=O)O", "note": "(stereo not drawn)", "activity change, negative = inhibition": "inactive: 10.5%"},
      {"smiles": "CCOc1ccc(-n2c(=O)c3sccc3n(Cc3cccc([N+](=O)[O-])c3)c2=O)cc1", "Potency": "inconclusive: 18.5 µM [inhibitor, single point]"},
      {"smiles": "CC1CCC(NC(=O)CN2CCCN(Cc3ccc(F)cc3Cl)C2=O)CC1", "note": "(stereo not drawn)", "Potency": "inconclusive: 0.0294 µM [inhibitor, full curve, poor fit]"},
      {"smiles": "COC(=O)CCCNC(=O)c1ccc(S(=O)(=O)NCc2ccco2)cc1", "activity change, negative = inhibition": "inactive: 0.499%"},
      {"smiles": "O=C(CN1CCCc2ccccc21)N/N=C/c1ccc(O)cc1O", "activity change, negative = inhibition": "inactive: 8.6%"},
      {"smiles": "O=C(c1cccc(Cl)c1)N1CCN(c2ncccn2)CC1", "Potency": "inconclusive: 10.4 µM [inhibitor, partial curve]"},
      {"smiles": "COc1ccc(N/N=C(\\C#N)C(=N)N2CCOCC2)cc1", "activity change, negative = inhibition": "inactive: 6.88%"},
      {"smiles": "O=C(NCC1CCCO1)C(c1cccnc1)N(C(=O)Cc1cccs1)c1cccnc1", "note": "(stereo not drawn)", "Potency": "inconclusive: 0.0657 µM [inhibitor, full curve]"},
      {"smiles": "O=C(CNc1cccc(C(F)(F)F)c1)Nc1cccc(S(=O)(=O)N2CCCC2)c1", "Potency": "inconclusive: 13.1 µM [inhibitor, single point]"},
      {"smiles": "CC(=O)N1CCN(c2nnc(-c3ccc(C)cc3)c3ccccc23)CC1", "Potency": "inconclusive: 1.65 µM [inhibitor, full curve]"},
      {"smiles": "O=C(Nc1c(C(=O)c2ccccc2)oc2ccccc12)c1cc(-c2ccccc2O)n[nH]1", "Potency": "active: 0.657 µM"},
      {"smiles": "O=C(Nc1nnc(C2CC2)s1)C1Cc2ccccc2CN1S(=O)(=O)c1cccs1", "note": "(stereo not drawn)", "Potency": "inconclusive: 18.5 µM [inhibitor, single point]"},
      {"smiles": "COc1ccc(C(O)(CC(C)C)C(CN2CCOCC2)c2ccccc2)cc1", "note": "(stereo not drawn)", "Potency": "inconclusive: 11.7 µM [inhibitor, partial curve, poor fit]"},
      {"smiles": "O=[N+]([O-])c1ccc(Sc2ncc3ccccn23)nc1", "Potency": "active: 9.28 µM"},
      {"smiles": "Cc1ccc(NC(=O)c2noc(C(C)C)c2[N+](=O)[O-])cc1", "Potency": "inconclusive: 6.57 µM [inhibitor, partial curve, poor fit]"}
    ]}
  ]
}
